Results taken from PubChem BioAssay AID623959 (National Center for Advancing Translational Sciences (NCATS), 2012).
Hit rate of the full screen: of about 1,400 compounds, fewer than 10 were called active. Inconclusive results (about 8%) are left out. Calls come from the whole dose curve; as a rule, active = well fitted curve in the direction sought with a large enough effect; inconclusive = small, poorly fitted or top-dose-only effect, or another doubt; inactive = no such curve, though single readings can be large or run the other way. The list shows a part of the results.

The chains behind the UniProt entries cited, without tags or fusion partners.
UniProt Q8NER1, whole entry, looked up: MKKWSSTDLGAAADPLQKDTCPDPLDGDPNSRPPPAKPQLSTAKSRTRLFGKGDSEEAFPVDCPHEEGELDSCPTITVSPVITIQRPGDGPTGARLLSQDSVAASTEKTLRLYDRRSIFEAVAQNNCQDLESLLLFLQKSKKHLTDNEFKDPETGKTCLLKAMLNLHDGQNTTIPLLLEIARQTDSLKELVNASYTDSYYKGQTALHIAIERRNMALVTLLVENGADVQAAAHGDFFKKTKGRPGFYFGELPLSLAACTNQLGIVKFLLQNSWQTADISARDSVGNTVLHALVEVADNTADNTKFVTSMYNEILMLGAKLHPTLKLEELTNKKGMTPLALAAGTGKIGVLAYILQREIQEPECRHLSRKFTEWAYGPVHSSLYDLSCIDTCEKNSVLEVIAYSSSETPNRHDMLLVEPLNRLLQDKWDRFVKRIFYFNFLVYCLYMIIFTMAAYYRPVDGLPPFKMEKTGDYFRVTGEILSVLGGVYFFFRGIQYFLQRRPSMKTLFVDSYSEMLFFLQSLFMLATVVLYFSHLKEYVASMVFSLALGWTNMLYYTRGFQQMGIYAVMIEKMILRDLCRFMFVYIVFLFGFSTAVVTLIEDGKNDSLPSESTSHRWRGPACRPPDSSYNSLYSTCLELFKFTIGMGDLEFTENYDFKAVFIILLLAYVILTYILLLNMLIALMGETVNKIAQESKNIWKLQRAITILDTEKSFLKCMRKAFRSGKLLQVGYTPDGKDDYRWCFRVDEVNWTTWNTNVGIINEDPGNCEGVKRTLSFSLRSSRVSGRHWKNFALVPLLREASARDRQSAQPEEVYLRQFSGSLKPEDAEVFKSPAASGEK

target: Transient receptor potential cation channel subfamily V member 1 (Homo sapiens) (UniProt Q8NER1); test: qHTS Assay for Compounds that Act as Potentiators of the Vanilloid Receptor 1: Hit Validation; details: TRPV1-expressing cells, Fluo-8 calcium influx, capsaicin EC20; series mostly up to 42.1 µM; activity change, positive = potentiation: at the top concentration; note: % of control where 0% means no effect
Summary of the method: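 Calcium influx via Fluo-8 fluorescence (480/520 nm) on FDSS: 10 s baseline, 3 min compound read, 2 min read after EC20 capsaicin. TRPV1-expressing cells plated 2000/well, grown overnight at 35.5 °C.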

Activity change, positive = potentiation, inactive:
C#CCOCCOCCOCCNc1nc(N2CCN(C(=O)[C@H]([C@@H](C)O)n3cc(CCCCN)nn3)CC2)nc(N2CCN(C(=O)[C@H](CCCCN)n3cc(CC(C)O)nn3)CC2)n1 (stereo partly specified) -1.19%
Cc1ccccc1C(=O)Nc1nnc(-c2ccc(C(C)(C)C)cc2)s1 -7.15%
CC(C)(C)c1ccc(S(=O)(=O)Nc2noc3ccccc23)cc1 -12.1%
CC(C)NC(=O)C1CC=CCC1C(=O)O (stereo unspecified) -2.64%
O=C1N=C(N2CCCCC2)S/C1=C\c1ccc(Br)cc1 -38.1%
COc1cc(C(=O)NCC(=O)NCCN2C(=O)S/C(=C\c3ccccc3Cl)C2=O)cc(OC)c1OC 1.09%
CN(CC(=O)Nc1ccc(N2CCOCC2)cc1)C(=O)CCNC(=O)c1ccc(Br)cc1 3.67%
NC(=O)C1CCN(C(=O)CCSCc2ccc(Cl)c(Cl)c2)CC1 -37.3%
COc1ccc(C(=O)C2CCCN(C(=O)CCNC(C)=O)C2)cc1OC (stereo unspecified) -12.9%
Cc1ccc(C(=O)NNC(=O)C2CC2)cc1Br 1.82%
Cc1c(C(=O)Nc2cccc([N+](=O)[O-])c2)cnn1-c1ccccc1 -30.5%
COc1cc(C(=O)NCC(=O)OCC(=O)N2CCc3ccccc32)cc(OC)c1OC -7.21%
Cn1c(SCC(=O)Nc2ccc(F)cc2)nnc1-c1cccnc1 1.91%
Clc1ccc2c(c1)c1cc(Cl)ccc1n2CN1CCOCC1 -6.88%
CCCCCC(=O)Nc1cccc(C2=NOC3(C2)C[C@H](C(N)=O)N(C(=O)CCCCC)C3)c1 (stereo partly specified) 10.4%
COc1ccc(C(=O)Nc2ccc(S(=O)(=O)Nc3cnc4ccccc4n3)cc2)cc1 -12%
COc1ccc(-n2c(SCC(N)=O)nc3nc4c(cc3c2=O)COC(C)(C)C4)cc1 13.3%
COc1cccc(N=Nc2ccc3ccccc3c2O)c1 -10.6%
O=C(N=C1SC2CS(=O)(=O)CC2N1c1cc(Cl)ccc1Cl)C1CCCO1 (stereo unspecified) -1.62%
O=C(CSc1ccc(-c2ccco2)nn1)Nc1ccccc1 -10.3%
Cc1cc(N2CCCC(C(=O)Nc3ccc4c(c3)CCC4)C2)n2ncnc2n1 (stereo unspecified) -34.5%
COc1ccc(-n2nc(C(=O)NCC(=O)NCCC3=CCCCC3)c3ccccc3c2=O)cc1OC 3.24%
Cc1ccc(-n2ncc3c(NCCCOC(C)C)ncnc32)c(C)c1 1.45%
C/C(=N/NC(=O)c1ccncc1)c1c[nH]c2ccccc12 -5.28%
COc1ccc(C(NC(=O)CC(C)C)c2c(O)ccc3ccccc23)cc1 (stereo unspecified) -8.58%
O=C(Nc1ccc(Cl)cc1)OCc1cn(-c2ccccc2)nn1 8.88%
CCc1ccc(NC(=O)c2ccc(S(=O)(=O)NCc3cccnc3)cc2)cc1 -35.4%
CCCCCCN1N=C(C)C(C(=O)c2ccc(Cl)cc2)C1=O (stereo unspecified) -1.6%
CCOc1ccccc1OCCCNCc1ccccc1 0.278%
Cc1nc2c(S(=O)(=O)c3ccccc3)cnn2c(C)c1C -4.75%
N#Cc1c(N2C(=O)Nc3ccccc3N2O)sc2c1CCCCCC2 8.21%
O=C(NCc1cccnc1)C1CCC(c2ccc(Cl)cc2)CC1 (stereo unspecified) -35.9%
CCC(C)Sc1ccc(-c2nc3ccc(C)cn3c2NCc2ccccc2)cc1OC (stereo unspecified) -38.5%
Cc1nc2c(=O)n(-c3cccc(C(F)(F)F)c3)nc(C)c2s1 -37.1%
CCCOC(=O)c1ccc(NC(=O)C2C3CCC(C3)C2C(=O)O)cc1 (stereo unspecified) -30.3%
Cc1ccc(S(=O)(=O)N(C)C)cc1NC(=O)c1ccccc1SCC(=O)N1CCCC1 -3.17%
Cn1c(=O)n(C)c2cc3[nH]cnc3cc21 -1.1%
COc1ccc(N2CCC(CNS(=O)(=O)c3cccc(C(F)(F)F)c3)C2)cc1 (stereo unspecified) -5.77%
Cc1cccc(C)c1OCC(=O)Nc1cccc(S(=O)(=O)N2CCCC2)c1 -3.66%
O=C(NCc1ccc(F)cc1)C1CCCN(c2nc3ccsc3c(=O)s2)C1 (stereo unspecified) -25.5%
COc1ccc(S(=O)CC(=O)Nc2ccccc2Cl)cc1 (stereo unspecified) -3.76%
Cc1cc(C)cc(NC(=S)N2CCC(NC(=O)C3CCCCC3)CC2)c1 -2.73%
COc1cccc(-c2nc3c(c(=O)[nH]c(=O)n3Cc3ccccc3)n2CCO)c1OC(F)F -7.88%
CCCn1c(C(C)Nc2nc(-c3cc(Cl)c(N)c(Cl)c3)cs2)nc2cc(Cl)c(N3CCCCC3)cc21 (stereo unspecified) -34%
O=C(N/N=C/c1cccnc1)c1ccc2c(c1)OCO2 -7.94%
COc1ccc(C(=O)NCCC2=CCCCC2)cc1[N+](=O)[O-] -32.8%
CC(=O)c1c[nH]c(C(=O)NCc2ccccc2Cl)c1 7.13%
CCN(CCNC(=O)c1ccc(C#N)cc1)c1cccc(C)c1 -38.9%
Cc1cc2c(NC(=O)Nc3ccc(C(C)(C)C)cc3)cccc2nn1 -38.9%
CCCCn1c(=O)[nH]c(=O)c2c1nc(-c1ccc(OC)c(Br)c1)n2CC(C)C -3.67%
O=C(Nc1ccc(Cl)cc1)c1ccc2snnc2c1 -36%
CCN(CC)CCNC(=O)C12CC3CC(CC(C3)C1)C2 -0.879%
Cc1ccc(NC(=O)CSc2nnc(-c3cc(C)[nH]n3)n2N)c(C)c1 -5.45%
COc1ccc(OC)c(S(=O)(=O)N2CCC(C(=O)NCCc3ccc(OC)c(OC)c3)CC2)c1 -8.82%
O=[N+]([O-])c1ccc(Cl)c(C[n+]2cccc3ccccc32)c1 -5.15%
C=CCN(Cc1nc(-c2ccccc2)no1)C(=O)c1ccco1 1.6%
COc1ccc(-c2cn3cc(C)ccc3n2)cc1OC -5.92%
O=C(Nc1cccnc1)c1ccc(-c2ccccc2)cc1 -39.5%
O=C(NCc1ccccc1Cl)C1CCCN1C(=O)NC1CCCCC1 (stereo unspecified) -2.85%
CCS(=O)(=O)c1ncc(Cl)c(C(=O)Nc2ccc(S(=O)(=O)N(C)c3ccccc3)cc2)n1 -1.57%
Cc1ccc(NCc2n[nH]c(=S)n2-c2ccccc2)c(C)c1 9.07%
CCn1c(=O)c(C(=O)NC(C)c2ccccc2)c(O)c2ccccc21 (stereo unspecified) 4.96%
O=C(Nc1cccc([N+](=O)[O-])c1)c1ccc(-c2ccccc2)cc1 -38.6%
O=C(Nc1c2c(nn1-c1ccccc1)CS(=O)(=O)C2)c1ccc2c(c1)OCO2 5.08%
CCOc1cc2[nH]c(=S)n(CCC(=O)NCc3ccco3)c(=O)c2cc1OCC -5.05%
Cc1nc(-c2ccc(F)cc2)c(CC(=O)N(C)CC(=O)Nc2ccccc2Br)s1 -6.17%
COc1cccc(/C=C2\SC(N3CCC(C)CC3)=NC2=O)c1OC -38.7%
O=S(=O)(ON(c1ccccc1)S(=O)(=O)c1ccccc1)c1ccccc1 -1%
C=C(Cl)COc1ccc2c(C)cc(=O)oc2c1 0.569%
COc1ccc(S(=O)(=O)N2CCCC2)cc1C(=O)O -4.69%
CCOC(=O)c1c(C)[nH]c(C)c1C(=O)CN1C(=O)NC(CC(C)C)C1=O (stereo unspecified) 0.659%
O=C(CCc1ccccc1)NNC(=O)c1cc(Cl)ccc1O -4.05%
CC(=O)c1ccc(N2CCN(C(=O)Nc3ccc(Cl)cc3)CC2)cc1 -36.8%
CCc1ccc(/C=N/NC(=O)c2c[nH]c3ccccc23)s1 -39%
COc1cc(C(=O)OCC(=O)NC(N)=O)cc(CN2C(=O)c3ccccc3C2=O)c1OC 6.56%
O=C(NCc1cccnc1)c1cccc(S(=O)(=O)N2CCCC2)c1 1.42%
CCC(C)c1ccc(NC(=O)N2CCOCC2)cc1 (stereo unspecified) -38%
Cc1ccc(C(=O)NCCN2CCNC2=O)cc1 0.573%
CCCc1cc(C(=O)NNC(=S)NC(C)c2ccccc2)cs1 (stereo unspecified) 11%
NS(=O)(=O)c1cccc(NC(=O)/C=C/c2cccs2)c1 -39.1%
N#Cc1ccccc1N1CCN(C(=O)c2ccc(NC(=O)c3ccc(Br)o3)cc2)CC1 -2.51%
O=C(/C=C/c1cccc2ccccc12)N1CCOCC1 -31.4%
Cc1nn(-c2ccccc2)c(NC(=O)c2ccccc2)c1Br 1.93%
Cc1cc(C(=O)Nc2ccc([N+](=O)[O-])cn2)cs1 -3.84%
CCOC(=O)[C@H]1[C@H]2COc3ccccc3[C@@H]2N2C(=O)c3ccc(C)cc3NC(=O)[C@@]12C -37.8%
O=C(/C=C\c1cn(-c2ccccc2)nc1-c1cccs1)N1CCOCC1 -37.9%
O=C(NC(Cc1c[nH]c2ccccc12)C(=O)O)/C(=C\c1ccc2c(c1)OCO2)NC(=O)c1ccccc1 (stereo unspecified) -6.18%
CCN(CC)c1ccc(NC(=O)c2cnccn2)cc1S(=O)(=O)Nc1ccc(OC)cc1 -38.7%
O=C(C1=NOC(CNc2ncc(C(F)(F)F)cc2Cl)C1)N1CCOCC1 (stereo unspecified) -39.4%
COc1ccc(C)cc1N(C(=O)COc1ccccc1)c1nc2ccccc2s1 -1.89%
CC(=O)Nc1ccccc1OCc1nnc(-c2ccccc2Cl)o1 -4.83%
Cc1cc2c(cc1C)NC(c1cccnc1)C1=C(CC(C)(C)CC1=O)N2 (stereo unspecified) -7.46%
COc1ccc(/C=N/NC(=O)c2cccnc2)cc1 4.5%
CN1CCN(c2ccc(S(=O)(=O)N3CCCCC3)cc2NC(=O)c2ccc(F)cc2F)CC1 -5.75%
CCCc1cc(=O)[nH]c(SCC(=O)N2CCN(c3ccc(F)cc3)CC2)n1 -6.29%
Cc1noc(C)c1-c1nc(CSc2ccccc2)no1 7.19%
Cc1onc(-c2cccc(Cl)c2Cl)c1C(=O)O/N=C(\N)c1ccc([N+](=O)[O-])o1 -1.45%
O=C(CSc1nnc(Cc2ccccc2)o1)NC1CC2CCC1C2 (stereo unspecified) 6.43%
Cc1ccc(NC(=O)CSc2nnc(Cc3cccn3C)n2-c2ccc(F)cc2)c(C)c1 -7.27%
CC(O)CNc1nc2sc3c(c2c(=O)n1Cc1ccco1)CCCCC3 (stereo unspecified) -2.72%
Cc1cccc(NC(=O)CC23CC4CC(C2)CC(n2nnc(C)n2)(C4)C3)c1 -6.74%
COc1ccc(C2C(C(=O)c3sc(C)nc3C)=C(O)C(=O)N2CCN2CCOCC2)cc1 (stereo unspecified) -1.93%
Cc1cc(NC(=O)CCCOc2ccc(Cl)cc2Cl)no1 -8.04%
Cn1cnnc1SCC(=O)Nc1ccccc1Oc1ccccc1 -6.49%
CCC(C)Sc1nnc(Cc2cc(=O)[nH]c(=O)[nH]2)n1-c1ccc(F)cc1 (stereo unspecified) 3.24%
Cn1c(C(=O)N2CCOCC2)cnc1Sc1ncc(C(F)(F)F)cc1Cl 1.37%
